Holding throughout (assay): supernatant depletion assay
For assay [1], the target named is T1, Par-3 PDZ1-APM (residues 309-987) (UniProt O96782).
T1 sequence: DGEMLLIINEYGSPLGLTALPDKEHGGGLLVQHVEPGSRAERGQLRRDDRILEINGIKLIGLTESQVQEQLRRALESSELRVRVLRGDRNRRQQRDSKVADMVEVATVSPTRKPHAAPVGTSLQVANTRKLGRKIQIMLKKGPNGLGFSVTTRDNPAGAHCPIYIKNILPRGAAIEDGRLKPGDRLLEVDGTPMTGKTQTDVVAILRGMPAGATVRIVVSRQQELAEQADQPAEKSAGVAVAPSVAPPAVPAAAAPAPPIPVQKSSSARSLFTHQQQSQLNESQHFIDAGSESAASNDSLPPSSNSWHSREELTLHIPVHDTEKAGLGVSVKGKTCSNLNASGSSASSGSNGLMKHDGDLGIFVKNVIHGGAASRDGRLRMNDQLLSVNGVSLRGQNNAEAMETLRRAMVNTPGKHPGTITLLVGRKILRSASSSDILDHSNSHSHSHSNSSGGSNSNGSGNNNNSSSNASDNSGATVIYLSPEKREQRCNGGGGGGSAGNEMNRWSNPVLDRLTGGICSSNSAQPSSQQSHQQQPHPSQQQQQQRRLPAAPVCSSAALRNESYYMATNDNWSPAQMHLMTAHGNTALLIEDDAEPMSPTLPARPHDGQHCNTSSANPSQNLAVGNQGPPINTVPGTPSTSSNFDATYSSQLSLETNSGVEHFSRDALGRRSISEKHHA

Assay [2] deals with Par-3 BR-PDZ2-3.
In assay [3] the target is Par-3 PDZ1-2.
The target of assay [4] is Par-3 PDZ2-3.

These are yes or no findings as the source states them, for the method shown. Binding calls can cover weak binding; strength is not graded here. For some of these results: Tags and fused reporters may be left off the sequences shown.

On to Par complex lacking the Par-6 PBM, for which the binding result in assay [1] is “binds”.

B1: his aPKC kinase domain-PBM (residues 259-606) (domain or fragment, UniProt A1Z9X0 259-606, looked up)
chain: YSLNDFELIRVIGRGSYAKVLMVELRRTRRIYAMKVIKKALVTDDEDIDWVQTEKHVFETASNHPFLVGLHSCFQTPSRLFFVIEFVRGGDLMYHMQRQRRLPEEHARFYAAEISLALNFLHEKGIIYRDLKLDNVLLDHEGHIKLTDYGMCKEGIRPGDTTSTFCGTPNYIAPEILRGEDYGFSVDWWALGVLLYEMLAGRSPFDLAGASENPDQNTEDYLFQVILEKTIRIPRSLSVRAASVLKGFLNKNPADRLGCHRESAFMDIVSHPFFKNMDWELLERKQVTPPFKPRLDSDRDLANFPPEFTGEAVQLTPDDDHVIDNIDQSEFEGFEYVNPLLMSLEDCV
In the case of B1, the binding result in assay [2], in assay [3] and in assay [4] was “binds” throughout.

(Values after article doi:10.1101/2021.12.10.472131 (bioRxiv, 2021).)
